Where “and” joins values, the source holds several entries; their conditions need not be identical. Identical values can stand only once. Like-named read-outs stand apart in the source and are kept apart here. The structures given here were assigned with low confidence; some may be wrong.
Tests used:
[1] = biological target: GST–PCTAIRE-1 (Homo sapiens, UniProt Q00536); test: In vitro phosphotransferase (kinase) assay of purified GST–PCTAIRE-1 on peptide substrates; conditions: 1 μg GST–PCTAIRE-1; for GST-PCTAIRE-1 Km / GST-PCTAIRE-1 Vmax / Km: peptide 0-100 μM, mean ± SEM; for PCTAIRE-1 activity, fold increase relative to the parental CDK substrate peptide / PCTAIRE-1 activity against substituted peptide relative to the parental CDK substrate peptide: Fig. 1C, peptide fixed at 250 μM; for Km: read-out: GST-PCTAIRE-1 Km; for PCTAIRE-1 activity against substituted peptide relative to the parental CDK substrate peptide: 'similar results' = as for + 1P → A (abolished), data not shown
Procedure: HEK293 cells were transfected with pEBG6P encoding GST-tagged human PCTAIRE-1 and harvested 36 h later as described above. GST–PCTAIRE-1 was isolated by batch-wise purification using Glutathione-Sepharose 4B. Briefly, lysates were incubated with equilibrated resin for 1 h at 4 °C, washed extensively with lysis buffer and eluted with 20 mM reduced glutathione in 50 mM Tris–HCl pH 8, 0.27 M sucrose, 0.1 mM EGTA and 1 mM DTT. Protein concentration was estimated by densitometry of Coomassie-stained gels using BSA standards. PCTAIRE-1 preparations were snap-frozen in N2(l) and stored at − 80 °C.
(§1) Fig. 1 Determination of PCTAIRE-1 optimal substrate motif. (A) GST–PCTAIRE-1 WT and kinase dead (KD, D304A) were prepared by overexpression in HEK293 and 1 μg assayed in vitro for phosphotransferase activity against 250 μM of the canonical CDK substrate (CDK-tide, PKT*PKKAKKL) or a peptide derived from the putative PCTAIRE-1 substrate, NSF (NSF-tide, FIKICS*PDKMIGRRR) as described in Materials and methods. (B) GST–PCTAIRE-1 WT/KD was prepared as described in (A) and the optimal substrate motif determined by positional scanning peptide library screening (PSPL) as described in Materials and methods. (C) The activity of GST–PCTAIRE-1 (1 μg) and CDK2–cyclin A2 (10 ng) was assayed against a panel of CDK-tide derivatives (concentration fixed at 250 μM) based on the results of the degenerate library screen (modifications are underlined). Results are expressed as mean ± SEM and are representative of 3 independent experiments.
(§2) Purified rPCTAIRE-1, rCDK2–cyclin A2 or immune complexes isolated from cell/tissue lysates were assayed for phosphotransferase activity in a final assay volume of 50 μl containing 50 mM HEPES pH 7.5, 0.1 mM EGTA, 10 mM Mg(OAc)2, 0.1 mM [γ-^32P] ATP (300 CPM pmol^− 1), 1 mM DTT and the indicated concentrations of peptide substrate. Reactions were incubated at 30 °C and terminated by spotting onto P81 paper and immersion in 75 mM H3PO4. P81 filters were washed 3 × 10 min with H3PO4, rinsed with acetone, air-dried and incorporation of [γ-^32P] determined by Cherenkov counting. Results are expressed in U mg^− 1, where 1 U is defined as the incorporation of 1 nmol phosphate.min^− 1.
(§3) Fig. 2 Optimisation of PCTAIRE-1 substrate peptide. The in vitro phosphotransferase activity of 1 μg GST–PCTAIRE-1 (A) and 10 ng CDK2–cyclin A2 (B) was determined using a panel of CDK-tide derivatives (modifications from the parental peptide are underlined). Peptide conc. was varied over the range 0 > 100 μM and substrate saturation curves were fitted by non-linear regression to the Michaelis–Menten model. Fitted parameters [Km (μM) and Vmax (mU mg^− 1)] are listed in the adjoining table. (C) Based on the CDK-tide optimisation, derivatives of NSF-tide were synthesised (modifications underlined) and assayed for PCTAIRE-1 activity as described in (A + B). 100% GST–PCTAIRE-1 = 164 mU mg^− 1 and 100% CDK2–[…] = 940 U mg^− 1. (D) PCTAIRE-1 was immunoprecipitated from 2 mg of HEK293 lysate and kinase activity determined using 250 μM CDK-tide or the optimised substrate, PKS*PKARKKL (PCTAIRE-tide) as described in Materials and methods. Results are expressed as mean ± SEM and are representative of 3 independent experiments. […]

Protein sequences, listed by entry. Tags and fused reporters are not part of them.
UniProt Q00536, whole entry: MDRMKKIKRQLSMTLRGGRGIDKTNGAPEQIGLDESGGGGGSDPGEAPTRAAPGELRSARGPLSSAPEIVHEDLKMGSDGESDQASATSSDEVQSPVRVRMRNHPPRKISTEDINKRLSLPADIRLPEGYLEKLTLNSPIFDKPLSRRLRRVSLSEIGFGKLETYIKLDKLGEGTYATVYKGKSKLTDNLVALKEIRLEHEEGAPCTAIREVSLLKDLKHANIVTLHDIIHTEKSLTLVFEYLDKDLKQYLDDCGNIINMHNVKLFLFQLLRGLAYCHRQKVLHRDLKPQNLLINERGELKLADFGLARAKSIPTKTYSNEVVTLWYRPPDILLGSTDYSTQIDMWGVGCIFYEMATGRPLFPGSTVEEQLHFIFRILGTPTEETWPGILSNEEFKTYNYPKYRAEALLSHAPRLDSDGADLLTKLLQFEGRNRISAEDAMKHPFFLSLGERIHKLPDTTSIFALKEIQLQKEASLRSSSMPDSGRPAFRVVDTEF

[2] = biological target: CDK2–cyclin A2 (Homo sapiens, UniProt P20248+P24941); test: In vitro phosphotransferase (kinase) assay of rCDK2–cyclin A2 on peptide substrates; conditions: for CDK2-cyclin A2 Vmax: Fig. 2B table; for CDK2-cyclin A2 Vmax / CDK2-cyclin A2 Km / Km: CDK-tide derivatives, peptide 0-100 μM, Michaelis–Menten fit, mean ± SEM; for CDK2-cyclin A2 Km / Km: Fig. 2B, 0.1 mM [γ-32P]ATP, 30 °C, representative of 3 independent experiments; for CDK2–cyclin A2 activity against substituted peptide relative to the parental CDK substrate peptide: 'similar results' = as for + 1P → A (abolished), data not shown; for Km: read-out: CDK2-cyclin A2 Km; for CDK2–cyclin A2 Vmax as stated in text: running text on Fig. 2B, one range stated for TPKKR, SPKKA and TPKKA together
Procedure: PCTAIRE-1C-16 (sc-174) and PCTAIRE-1G6.1 (sc-53410) antibodies were from Santa Cruz Biotechnology. Cyclin Y antibody was from Proteintech. HA.11 (16B2) antibody was from Covance Research Products. The following antibodies were raised in sheep by the Division of Signal Transduction Therapy (DSTT, University of Dundee) against the indicated immunogens: PCTAIRE-1 (S552C, full length human 6×his-PCTAIRE-1), cyclin Y (S206D, full length human GST-cyclin Y). rCDK2–cyclin A2 was prepared by overexpression in Escherichia coli as previously described. Peptide substrates for kinase assays were synthesised by GL Biochem, and the peptide library was synthesised by Anaspec, Inc. [γ-^32P] ATP was from PerkinElmer. HRP-conjugated secondary antibodies were from Jackson Immunoresearch. Unless otherwise indicated all other reagents were from Sigma.
as §1, §2, §3

[3] = Fig. 2C, NSF-tide derivatives, Michaelis–Menten fit, 0.1 mM [γ-32P]ATP, 30 °C
[4] = Fig. 2C, NSF-tide derivatives, Michaelis–Menten fit
[5] = Fig. 2A, CDK-tide derivatives, Michaelis–Menten fit, 0.1 mM [γ-32P]ATP, 30 °C, 1 U = 1 nmol phosphate min-1
[6] = Fig. 2A, CDK-tide derivatives, Michaelis–Menten non-linear regression, 0.1 mM [γ-32P]ATP, 30 °C, P81 paper, representative of 3 independent experiments
[7] = Fig. 1C, 10 ng CDK2–cyclin A2, peptide fixed at 250 μM

Row | Structure (SMILES) | GST-PCTAIRE-1 Vmax [1, 5] | Km [1, 6] [µM] | CDK2-cyclin A2 Vmax ([2]; 10 ng CDK2–cyclin A2) | CDK2-cyclin A2 Km ([2]; 10 ng CDK2–cyclin A2) | CDK2–cyclin A2 activity against substituted peptide relative to the parental CDK substrate peptide [2, 7] | further results
1 | CC[C@H](C)[C@H](NC(=O)[C@H](CCSC)NC(=O)[C@H](C)NC(=O)[C@H](CCCCN)NC(=O)[C@@H]1CCCN1C(=O)[C@H](CO)NC(=O)[C@H](CS)NC(=O)[C@@H](NC(=O)[C@H](CCCCN)NC(=O)[C@@H](NC(=O)[C@@H](N)Cc1ccccc1)[C@@H](C)CC)[C@@H](C)CC)C(=O)NCC(=O)N[C@@H](CCCNC(=N)N)C(=O)N[C@@H](CCCNC(=N)N)C(=O)N[C@@H](CCCNC(=N)N)C(=O)O |  |  |  |  |  | GST-PCTAIRE-1 Km [1, 3]: No fit; GST-PCTAIRE-1 Vmax [1, 4]: No fit
2 | CC(C)C[C@H](NC(=O)[C@H](CCCCN)NC(=O)[C@H](CCCCN)NC(=O)[C@H](C)NC(=O)[C@H](C)NC(=O)[C@H](CCCCN)NC(=O)[C@@H]1CCCN1C(=O)[C@@H](NC(=O)[C@H](CCCCN)NC(=O)[C@@H]1CCCN1)[C@@H](C)O)C(=O)O | 360 ± 23 mU.mg^-1 | 37 | Neg | Neg |  | PCTAIRE-1 activity, fold increase relative to the parental CDK substrate peptide [1]: ~ 3 fold; CDK2–cyclin A2 activity, fold lower than on the original CDK substrate peptide [2, 7]: ~ 7 fold
3 | CC(C)C[C@H](NC(=O)[C@H](CCCCN)NC(=O)[C@H](CCCCN)NC(=O)[C@H](C)NC(=O)[C@H](CCCCN)NC(=O)[C@H](C)NC(=O)[C@@H]1CCCN1C(=O)[C@@H](NC(=O)[C@H](CCCCN)NC(=O)[C@@H]1CCCN1)[C@@H](C)O)C(=O)O | Neg |  | No fit | No fit | robustly reduced | PCTAIRE-1 activity against substituted peptide relative to the parental CDK substrate peptide [1]: robustly reduced; GST-PCTAIRE-1 Km [1, 6]: Neg
4 | CC(C)C[C@H](NC(=O)[C@H](CCCCN)NC(=O)[C@H](CCCCN)NC(=O)[C@H](C)NC(=O)[C@H](C)NC(=O)[C@H](CCCCN)NC(=O)[C@@H]1CCCN1C(=O)[C@H](CO)NC(=O)[C@H](CCCCN)NC(=O)[C@@H]1CCCN1)C(=O)O | 430 ± 16 mU.mg^-1 | 25 | No fit | No fit |  | 
5 | CC[C@H](C)[C@H](NC(=O)[C@H](CCSC)NC(=O)[C@H](CCCCN)NC(=O)[C@H](CCCCN)NC(=O)[C@@H]1CCCN1C(=O)[C@H](CO)NC(=O)[C@H](CS)NC(=O)[C@@H](NC(=O)[C@H](CCCCN)NC(=O)[C@@H](NC(=O)[C@@H](N)Cc1ccccc1)[C@@H](C)CC)[C@@H](C)CC)C(=O)NCC(=O)N[C@@H](CCCNC(=N)N)C(=O)N[C@@H](CCCNC(=N)N)C(=O)N[C@@H](CCCNC(=N)N)C(=O)O |  |  |  |  |  | GST-PCTAIRE-1 Vmax [1, 4]: 240 ± 9.9 mU.mg^-1; Km [1, 3]: 23 µM
6 | CC(C)C[C@H](NC(=O)[C@H](CCCCN)NC(=O)[C@H](CCCCN)NC(=O)[C@H](C)NC(=O)[C@H](CCC(=O)O)NC(=O)[C@H](CCCCN)NC(=O)[C@@H]1CCCN1C(=O)[C@@H](NC(=O)[C@H](CCCCN)NC(=O)[C@@H]1CCCN1)[C@@H](C)O)C(=O)O | Neg |  | Neg | Neg | negligible | PCTAIRE-1 activity against substituted peptide relative to the parental CDK substrate peptide [1]: negligible; GST-PCTAIRE-1 Km [1, 6]: Neg
7 | CC(C)C[C@H](NC(=O)[C@H](CCCCN)NC(=O)[C@H](CCCCN)NC(=O)[C@H](C)NC(=O)[C@H](CCCCN)NC(=O)[C@H](CCCCN)NC(=O)[C@@H]1CCCN1C(=O)[C@H](CO)NC(=O)[C@H](CCCCN)NC(=O)[C@@H]1CCCN1)C(=O)O | 150 ± 13 mU.mg^-1 | 50 |  |  |  | Km ([2]; 10 ng CDK2–cyclin A2): 20 µM and 24 µM; CDK2–cyclin A2 Vmax as stated in text [2]: 1100–1500 mU mg^− 1
8 | CC(C)C[C@H](NC(=O)[C@H](CCCCN)NC(=O)[C@H](CCCCN)NC(=O)[C@H](CCCNC(=N)N)NC(=O)[C@H](CCCCN)NC(=O)[C@H](CCCCN)NC(=O)[C@@H]1CCCN1C(=O)[C@@H](NC(=O)[C@H](CCCCN)NC(=O)[C@@H]1CCCN1)[C@@H](C)O)C(=O)O | 160 ± 6 mU.mg^-1 | 22 |  |  | comparable | PCTAIRE-1 activity, fold increase relative to the parental CDK substrate peptide [1]: ~ 2 fold; Km ([2]; 10 ng CDK2–cyclin A2): 20 µM and 19 µM; CDK2–cyclin A2 Vmax as stated in text [2]: 1100–1500 mU mg^− 1

Source: PMC3590450, “Analysis of substrate specificity and cyclin Y binding of PCTAIRE-1 kinase” (Cellular Signalling, 2012)
